Measured values from patent US20230227838A1, “ENHANCED CELL SURVIVAL AGAINST BIOTIC AND ABIOTIC STRESSES THROUGH SALICYLICK ACID-INDUCED NPR1 CONDENSATES” (priority 2020, published 2023).

System: sim3-GFP
Assay: Quantitative LC-MS/MS of sim3-GFP interactome (SINC components)
Set-up: species or system Arabidopsis thaliana
Conditions: protein enrichment in the sim3-GFP interactome (SINC components), SA-treated samples versus mock

| Substance | Normalized Fold Change: SA vs Mock |
| --- | --- |
| AT5G54310 | 8.653 |
| AT3G13870 | 2.859 |
| AT2G26560 | 3.961 |
| AT3G06720 | 2.092 |
